# Assay results reported in ChEMBL document CHEMBL4196032, “Conformational mimetics of the α-methyl chalcone TUB091 binding tubulin: Design, synthesis and antiproliferative activity” (Eur J Med Chem, 2018).
# Tested on: HMEC-1
# Test: Antiproliferative activity against human HMEC1 cells after 4 days by coulter counting method
# Assay type: cell-based
# Details: HMEC-1, 96 h
# Summary of the method: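 HMEC-1 seeded at 20,000 cells/well; 5-fold compound dilutions added after 24 h; 4 days proliferation, trypsinized, Coulter counted. IC50 taken as concentration giving 50% reduction in cell proliferation.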
compound,measurement,value
COc1cc2c(c(OC)c1OC)-c1ccc(OC)c(=O)cc1[C@@H](NC(C)=O)CC2 [COLCHICINE],IC50,3.8 nM
